Data reported in paper PMC11496845, “Preparation, characterization, and in vitro cytogenotoxic evaluation of a novel dimenhydrinate-β-cyclodextrin inclusion complex” (Biomolecules and Biomedicine, 2024).
Where two headings read alike, the source gives them in different places.

Settings: aqueous, 25 °C ± 0.1 °C, n=3

Q: For `CN(C)CCOC(c1ccccc1)c1ccccc1.Cn1c(=O)c2[nH]c(Cl)nc2n(C)c1=O` [DMH, 2-benzhydryloxy-N,N-dimethylethanamine; 8-chloro-1,3-dimethyl-7H-purine-2,6-dione], which “SCD, concentration of DMH in CD solution” value (β-CD 4.40 mmol/L) is on record?
A: The value was 17.35 mmol/L.

Q: And the “SCD, concentration of DMH in CD solution” value (β-CD 7.49 mmol/L)?
A: The value was 19.12 mmol/L.

Q: What about the “SCD, concentration of DMH in CD solution” value (β-CD 8.81 mmol/L) of the same compound?
A: Its value is 19.93 mmol/L.

Q: What about the “SCD, concentration of DMH in CD solution” value (β-CD 10.57 mmol/L) of the same compound?
A: Its value is 21.42 mmol/L.

Q: And the “SCD, concentration of DMH in CD solution” value (β-CD 13.21 mmol/L)?
A: Its value is 22.85 mmol/L.

Q: What about the “SCD, concentration of DMH in CD solution” value (β-CD 15.86 mmol/L) of the same compound?
A: The value was 25.27 mmol/L.

Q: And the “SCD, concentration of DMH in CD solution” value (β-CD 17.62 mmol/L)?
A: The value was 26.68 mmol/L.

Q: What about the “SCD, concentration of DMH in CD solution” value (β-CD 22.03 mmol/L) of the same compound?
A: Its value is 31.15 mmol/L.
